Results: paper PMC4552428
No constants are given. Whether binding was seen depends on the method and setting. Some entries that bind do so weakly or less than the wild type. For some of these results: Where a sequence is shown, tags or fusion partners need not be part of it.

Sequences of proteins named here, by UniProt entry; tags and fusion partners are left off. Residues count along the entry.
UniProt P39743, residues 421-482: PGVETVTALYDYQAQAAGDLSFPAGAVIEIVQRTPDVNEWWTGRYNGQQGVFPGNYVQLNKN

Tests used:
[1] = target: Rvs167 SH3 domain, Gal4 binding domain (bait) fusion (S. cerevisiae) (UniProt P39743); experiment: two-hybrid; yeast two-hybrid; Las17 polyproline region on the activation plasmid, SH3 domains on the Gal4 binding domain (bait) plasmid
[2] = target: T1, Ysc84 SH3 domain, Gal4 binding domain (bait) fusion (S. cerevisiae) (UniProt P32793); experiment: as above
T1 sequence: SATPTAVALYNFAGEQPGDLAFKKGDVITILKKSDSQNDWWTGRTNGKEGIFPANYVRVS

Substance	binding [1]	binding [2]
Las17 polyproline region (residues 292–536) P388A, two-hybrid activation-domain fusion (from UniProt Q12446 292-536) (domain or fragment)	binds	binds
Las17 polyproline region (residues 292–536), two-hybrid activation-domain fusion (from UniProt Q12446 292-536) (domain or fragment)	binds	binds
